This passage reports neuronal differentiation score results from the supplement of paper PMC4635364.

Molecules are shown by their SMILES. The list shows a part of the results. Single values are uncertain here, since repeats match poorly.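 Human fetal ventral-midbrain neural progenitor line ReNCell VM, differentiated without mitogens. Images stained for doublecortin (early neurons) or tyrosine hydroxylase (dopaminergic neurons) were scored by blinded raters against untreated wells (0 = no change). Repeats and both raters were averaged, and compounds averaging 2 or higher were picked as hits for retesting.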

For the assay, the system named is ReNCell VM. Briefly: neuronal differentiation score (DCX+ cell fraction vs untreated, manual image score) (score (-3 to 3)); higher = more neuronal differentiation. The settings on record: library: Spectrum; 2 uM; 2 weeks.
As to `O=C(N/N=C/c1ccc([N+](=O)[O-])o1)c1cc([N+](=O)[O-])cc([N+](=O)[O-])c1O`, the neuronal differentiation score was inactive: 0.
`CS(=N)(=O)CC[C@H](N)C(=O)O` (some centres undefined): the neuronal differentiation score was inactive: 0.
To `COc1cc2c(cc1OC)-c1c(oc3c4c(ccc3c1=O)OC(C(C)C)C4)CO2` (centres undefined) belongs inactive: 0.
To `C[N+]1(C)[C@@H]2CC[C@H]1C[C@@H](OC(=O)C(CO)c1ccccc1)C2` (some centres undefined) belongs inactive: 0; to `O=C1C[C@@H]2OCC=C3CN4CC[C@]56c7ccccc7N1[C@H]5[C@H]2[C@H]3C[C@H]46`, inactive: 1.
To `CC[C@@]1(O)C[C@H](O[C@H]2C[C@H](N(C)C)[C@H](O)[C@H](C)O2)c2c(cc3c(c2O)C(=O)c2c(O)ccc(O)c2C3=O)[C@H]1C(=O)OC` belongs inactive: 0.
Take `CC(Cc1ccc(O)cc1)NCC(O)c1cc(O)cc(O)c1` (centres undefined): the neuronal differentiation score was inactive: 0.
To `CCn1cc(C(=O)O)c(=O)c2cc3c(cc21)OCO3` belongs inactive: 0; to `COC[C@]12CN(C=O)[C@@H]3[C@@H]4[C@H](OC)[C@H]1[C@@]3([C@@H](OC)C[C@H]2O)[C@@H]1C[C@@]2(O)[C@H](OC(=O)c3ccccc3)[C@@H]1[C@]4(OC(C)=O)[C@@H](O)[C@@H]2OC`, inactive: 0.
As to `CCC(C)(C)O`, the neuronal differentiation score was inactive: 0.
Next, `C=C(C)[C@H]1Cc2c(ccc3c2O[C@@H]2COc4cc(OC)c(OC)cc4[C@@H]2C3=O)O1`: inactive: 0; `CC1(C)C(C=C(Cl)Cl)C1C(=O)OCc1cccc(Oc2ccccc2)c1` (centres undefined): inactive: 1.
As to `CCCCc1ccc(C(=O)O)nc1`, the neuronal differentiation score is inactive: 0.
With `C=CCN=C=S`, the neuronal differentiation score was inactive: 0.
